No constants are given. Whether binding was seen depends on the method and setting. Binding seen in cells or lysates may run through a third protein. Tags and fused reporters may be left off the sequences shown.
Target: T1, CASZ1b, C-terminal 3xTy1 tagged (doxycycline inducible, in SMS-CTRtetCASZ1b cells) (human) (UniProt Q86V15)
T1 sequence: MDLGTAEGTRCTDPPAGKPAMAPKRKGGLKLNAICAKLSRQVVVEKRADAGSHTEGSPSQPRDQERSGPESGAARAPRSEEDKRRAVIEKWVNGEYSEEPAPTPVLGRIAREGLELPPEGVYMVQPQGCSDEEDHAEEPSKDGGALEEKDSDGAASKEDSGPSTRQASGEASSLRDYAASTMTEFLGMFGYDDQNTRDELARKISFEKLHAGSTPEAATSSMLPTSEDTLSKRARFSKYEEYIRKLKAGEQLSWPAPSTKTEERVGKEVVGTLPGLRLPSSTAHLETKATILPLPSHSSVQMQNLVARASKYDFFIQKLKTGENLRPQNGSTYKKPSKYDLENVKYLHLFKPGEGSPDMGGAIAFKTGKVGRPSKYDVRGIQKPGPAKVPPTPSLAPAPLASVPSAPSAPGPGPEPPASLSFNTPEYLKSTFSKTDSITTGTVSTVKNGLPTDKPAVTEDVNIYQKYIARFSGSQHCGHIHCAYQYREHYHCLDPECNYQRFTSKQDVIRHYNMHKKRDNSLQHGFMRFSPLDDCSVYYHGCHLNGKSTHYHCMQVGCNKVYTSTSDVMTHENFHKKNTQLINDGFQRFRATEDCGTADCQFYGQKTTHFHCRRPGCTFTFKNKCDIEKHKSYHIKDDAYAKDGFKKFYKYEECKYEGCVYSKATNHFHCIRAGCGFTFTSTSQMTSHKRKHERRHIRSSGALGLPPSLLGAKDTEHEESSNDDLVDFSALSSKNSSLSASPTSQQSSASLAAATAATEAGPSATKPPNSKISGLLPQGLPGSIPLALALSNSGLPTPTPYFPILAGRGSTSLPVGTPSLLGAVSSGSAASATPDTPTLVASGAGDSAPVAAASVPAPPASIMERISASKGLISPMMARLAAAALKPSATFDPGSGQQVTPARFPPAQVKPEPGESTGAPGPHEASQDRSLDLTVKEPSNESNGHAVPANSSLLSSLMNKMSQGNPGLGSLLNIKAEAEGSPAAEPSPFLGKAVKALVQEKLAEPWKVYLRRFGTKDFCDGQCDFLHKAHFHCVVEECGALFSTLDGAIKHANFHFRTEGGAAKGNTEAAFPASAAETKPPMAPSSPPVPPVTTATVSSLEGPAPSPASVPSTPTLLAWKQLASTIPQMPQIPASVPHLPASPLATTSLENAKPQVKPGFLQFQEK
Test: co-IP; rabbit anti-CASZ1 antibody on Dynabead M-280 Sheep Anti-Rabbit IgG magnetic beads; whole cell extracts from CTRtetCASZ1b cells treated with Dox for 24 h, incubated 4 h at 4 °C; western blot

B1: MYOG (protein, UniProt P15173 1-224)
chain: MELYETSPYFYQEPRFYDGENYLPVHLQGFEPPGYERTELTLSPEAPGPLEDKGLGTPEHCPGQCLPWACKVCKRKSVSVDRRRAATLREKRRLKKVNEAFEALKRSTLLNPNQRLPKVEILRSAIQYIERLQALLSSLNQEERDLRYRGGGGPQPGVPSECSSHSASCSPEWGSALEFSANPGDHLLTADPTDAHNLHSLTSIVDSITVEDVSVAFPDETMPN
binding: no binding

Reference: paper PMC7021771
